Test results: publication doi:10.1101/2021.05.24.445478

Biological target: T1, FLAG-tagged CycK protein (human) (UniProt O75909)
T1 sequence: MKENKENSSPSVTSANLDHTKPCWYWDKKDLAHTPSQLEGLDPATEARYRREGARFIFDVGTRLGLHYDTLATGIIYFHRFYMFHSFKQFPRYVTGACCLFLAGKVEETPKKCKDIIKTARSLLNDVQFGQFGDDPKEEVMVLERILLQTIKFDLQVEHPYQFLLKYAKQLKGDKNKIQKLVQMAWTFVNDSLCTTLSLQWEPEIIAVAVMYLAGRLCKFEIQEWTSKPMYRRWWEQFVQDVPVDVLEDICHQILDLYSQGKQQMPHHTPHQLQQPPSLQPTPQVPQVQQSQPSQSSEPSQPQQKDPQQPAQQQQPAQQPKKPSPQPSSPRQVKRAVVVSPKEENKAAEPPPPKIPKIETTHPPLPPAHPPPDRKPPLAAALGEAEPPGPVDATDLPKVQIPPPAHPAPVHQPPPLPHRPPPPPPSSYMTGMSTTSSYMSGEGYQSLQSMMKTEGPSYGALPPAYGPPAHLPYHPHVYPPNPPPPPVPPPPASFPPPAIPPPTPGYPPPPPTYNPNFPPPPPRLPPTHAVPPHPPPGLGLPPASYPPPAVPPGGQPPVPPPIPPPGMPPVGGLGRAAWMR
Assay: co-IP

HIV-1 Nef (from the WT HIV-1 proviral vector)
binding: binds

These are yes or no findings as the source states them, for the method shown. In cells and extracts the contact can be indirect. A result given as binding can be weak or reduced; the word gives no strength. Tags and fused reporters may be left off the sequences shown.
